The record followed here is PMC11094054.

The target of this test is RUFY4 ΔFYVE deletion mutant (mouse). Kind of test: co-IP; HEK293T cells transfected to co-express the indicated proteins; lysed in RIPA buffer; lysates incubated with primary antibodies overnight, then protein A-agarose 1 h at 4 °C; immunoblot.

These are yes or no findings as the source states them, for the method shown. Binding seen in cells or lysates may run through a third protein. A result given as binding can be weak or reduced; the word gives no strength.

B1: LAMP2, expressed in HEK293T cells (protein, UniProt P17047 26-415)
chain: LIVNLTDSKGTCLYAEWEMNFTITYETTNQTNKTITIAVPDKATHDGSSCGDDRNSAKIMIQFGFAVSWAVNFTKEASHYSIHDIVLSYNTSDSTVFPGAVAKGVHTVKNPENFKVPLDVIFKCNSVLTYNLTPVVQKYWGIHLQAFVQNGTVSKNEQVCEEDQTPTTVAPIIHTTAPSTTTTLTPTSTPTPTPTPTPTVGNYSIRNGNTTCLLATMGLQLNITEEKVPFIFNINPATTNFTGSCQPQSAQLRLNNSQIKYLDFIFAVKNEKRFYLKEVNVYMYLANGSAFNISNKNLSFWDAPLGSSYMCNKEQVLSVSRAFQINTFNLKVQPFNVTKGQYSTAQDCSADEDNFLVPIAVGAALGGVLILVLLAYFIGLKRHHTGYEQF
With B1, the binding entry is reported as “binds”.
